Publication PMC12788653 (PLOS Pathogens, 2025)
No constants are given. Whether binding was seen depends on the method and setting. In cells and extracts the contact can be indirect. Some results given as binding are weak or reduced against the parent protein; the word gives no strength.

Protein sequences, listed by entry. Tags and fused reporters are not part of them. Lines headed by an entry give the natural chain unless they say otherwise; changes in a name come on top.
UniProt P15682: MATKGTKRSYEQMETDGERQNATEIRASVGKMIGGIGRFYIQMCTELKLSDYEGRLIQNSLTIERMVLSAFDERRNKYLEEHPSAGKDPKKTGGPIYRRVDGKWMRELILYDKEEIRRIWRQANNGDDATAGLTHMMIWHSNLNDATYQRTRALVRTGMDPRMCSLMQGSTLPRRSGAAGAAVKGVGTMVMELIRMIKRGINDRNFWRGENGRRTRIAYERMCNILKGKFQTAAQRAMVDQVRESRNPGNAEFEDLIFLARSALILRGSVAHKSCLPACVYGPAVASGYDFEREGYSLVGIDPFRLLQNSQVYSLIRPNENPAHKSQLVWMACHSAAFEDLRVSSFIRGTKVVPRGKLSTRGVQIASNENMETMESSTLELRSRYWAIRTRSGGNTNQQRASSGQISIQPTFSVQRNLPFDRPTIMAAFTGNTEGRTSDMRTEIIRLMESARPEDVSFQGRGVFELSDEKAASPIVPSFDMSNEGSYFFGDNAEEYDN

How the values were obtained:
Assay in all cases: co-IP
[1] = target: endogenous PKCα (human (endogenous in A549)) (UniProt P17252)
[2] = target: A/WSN/1933 (H1N1) NP made in virus infected cells (influenza A/WSN/1933 (H1N1)) (UniProt P15682)
MEK2-3xFLAG = MEK2-3xFLAG (UniProt P36507)

Substance | binding [1] | further results
endogenous ERK2 (from UniProt P28482 1-360) (enzyme) | binds | 
endogenous MEK1 (from UniProt Q02750 1-393) (enzyme) | binds | 
endogenous PKCα (from UniProt P17252 1-672) (enzyme) |  | binding [2]: binds
influenza A/WSN/1933 (H1N1) nucleoprotein NP-V5 (from UniProt P15682 8-498) |  | binding (MEK2-3xFLAG): no binding
